Consider two molecules from doi:10.1101/2024.02.29.582781 (bioRxiv, 2024).

These are yes or no findings as the source states them, for the method shown. Binding seen in cells or lysates may run through a third protein. Here binding means that the protein was enriched with, or labelled near, the bait; the list need not be complete. Tags and fused reporters may be left off the sequences shown.

The target of test [1] is T1, CoxG homologue Saci_1119, C-terminally HA-tagged (Sulfolobus acidocaldarius DSM 639) (UniProt Q4J9R0).
T1 sequence: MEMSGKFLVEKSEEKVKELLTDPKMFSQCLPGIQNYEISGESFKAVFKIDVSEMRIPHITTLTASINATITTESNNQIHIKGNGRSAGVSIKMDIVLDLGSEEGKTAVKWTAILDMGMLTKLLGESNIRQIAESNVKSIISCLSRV
As to the kind of experiment: affinity purification with mass spectrometry.

Test [2] addresses T2, CoxG homologue Saci_2031, C-terminally HA-tagged (Sulfolobus acidocaldarius DSM 639) (UniProt Q4J7A4).
T2 sequence: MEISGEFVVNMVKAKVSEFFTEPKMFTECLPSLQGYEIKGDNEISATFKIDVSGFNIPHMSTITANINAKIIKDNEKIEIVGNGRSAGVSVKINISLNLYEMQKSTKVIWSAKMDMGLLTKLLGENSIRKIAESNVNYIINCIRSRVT
In words: affinity purification with mass spectrometry.

B1: glycerol-3-phosphate dehydrogenase Saci_1118, N-terminally His-tagged (enzyme, Sulfolobus acidocaldarius DSM 639, UniProt Q4J9Q8 1-428, looked up)
chain: MKQNSSVIVIGGGATGLFTALDLSLRGINVTLVERGDIASGTSGKFHGLLHSGARYAVNDPESAKECKQENEVLSKIAPEFVRDTGGVFVGITEDDVNYSQRFLSALNSLGITNKVMDVEELIRREPFINKKSKIAIWVPDKVVYGYDLLATVALTASLNGAKILTYNEVKRVLREGNSVRRVEVKDNISGETKILNGDIIVNTAGPWAFRVIEMAGLGEIPLLPTAGIMVVMKEKLNSMVINRLRPPSDGDIIVPYGDSSIIGTTATIIPDPDNFEISDEDINMLIEEGAYMIPRLKEVKPERAYASVRPLIKNAEDGRGATRDFMIIDHEKVDSLDGLISVIGGKFTTSRLAGEKVSDMVSEKLGIREKSKTATIKLMSELDEKLLEKKRVPKVLVKMIRERKGSLDEDRYSTAMYILLSLLARGE
As for B1, the binding result in test [1] is listed as “binds”.

B2: glycerol-3-phosphate dehydrogenase Saci_2032, N-terminally His-tagged (enzyme, Sulfolobus acidocaldarius DSM 639, UniProt Q4J7A2 1-431, looked up)
chain: MEIKTSVLVIGGGANGLFTALDLALRGIDVTLVERRDIGSGTSGRFHGLLHSGARYAVTDPESAKECIQENNIISKIAPHAIRDTGGLFLGITKEDLEFLDKFLSSLKKLGIEHKIVDNNQVLQEEPYVNKDLKIAIWVPDKVVYGYDLLSSIAVTGSLNKARIMTYNEVTEFIRDGNSIKGVKVFDKITNQMNLIKSDIIINTSGPWAFKIITMAGLEEIPILPTAGIMAVFGKKVNNAVLNRLRPPSDGDIIVPYQDTSILGTTATIIEDPDNFTISDEDVKMLIKEGSQLVPELSKTRVIRTYASVRPLMRTSEDGRKASRDFTILDHEREDGVSGLISIIGGKFTTSRLVGEKVGDLVSEKLGVRAKSKTKETKLISPSEIDFEKYLEKIGISKIFLKSVMERRGSLDEERYKTVLYLLLSLIARGR
Take B2: the binding result in test [2] is listed as “binds”.
